# The whole screen tested about 2,100 compounds, of which about 180 (8.6%) showed an effect of 50% or more. The list shows a part of the results.
# System: MOLM1 and UCSD/AML1 (averaged)
# Test: cell viability relative to DMSO control (POC); higher = less growth inhibition
# Conditions: 1 µM; 72 h
# Description: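 Primary viability screen in the 3q26 EVI1-high AML cell lines MOLM1 and UCSD/AML1 (1.5e3 cells/well, 384-well), compounds at 1 uM for 72 h. ATP CellTiter-Glo read-out given as percent of viable cells over DMSO control (POC), averaged over duplicates. DMSO was the negative control and 5 uM etoposide the positive control. This mapping covers the MicroSource Spectrum and Selleck anticancer libraries (drug names).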
row,SMILES,cell viability [%]
1,CN(C)c1ccc(C(=C2C=CC(=[N+](C)C)C=C2)c2ccc(N(C)C)cc2)cc1,0.942
2,CC(=O)[C@H]1CC[C@H]2[C@@H]3CC=C4C[C@@H](O)CC[C@]4(C)[C@H]3CC[C@]12C,108
3,Cc1nc(Nc2ncc(C(=O)Nc3c(C)cccc3Cl)s2)cc(N2CCN(CCO)CC2)n1,29.5
4,CCN(CCO)CCCC(C)Nc1ccnc2cc(Cl)ccc12 (stereo unspecified),97.1
5,CON,109
6,CCCCN1CCCCC1C(=O)Nc1c(C)cccc1C (stereo unspecified),100
7,CCOC(=O)NNc1nncc2ccccc12,107
8,CC1(C)[C@@H](O)CC[C@]2(C)[C@H]3C(=O)C=C4[C@H]5C[C@@](C)(C(=O)O)CC[C@]5(C)CC[C@@]4(C)[C@]3(C)CC[C@@H]12 [18alpha-GLYCYRRHETINIC ACID],95.3
9,CC(=O)O[C@@H]1CC2C(C)(CC[C@H](O)C2(C)C)C2CC[C@]3(C)C(=CC(=O)O[C@H]3c3ccoc3)C21C (stereo partly drawn) [3beta-HYDROXYDEOXODIHYDRODEOXYGEDUNIN],106
10,Cc1ccc2c(=O)c3cccc(CC(=O)O)c3oc2c1C,99.8
11,C=C1/C(=C\C=C2/CCC[C@]3(C)[C@@H]([C@H](C)/C=C/[C@H](C)C(C)C)CC[C@@H]23)C[C@@H](O)C[C@@H]1O [Doxercalciferol (Hectorol)],99.3
12,CC12CCCC(O)(C1)C1CC(C)(C)C1CC2 (stereo not drawn) [beta-CARYOPHYLLENE ALCOHOL],111
13,CC(C)(C)c1ccc(C(O)CCCN2CCC(C(O)(c3ccccc3)c3ccccc3)CC2)cc1 (stereo unspecified),96.2
14,Cc1cc(=O)oc2c(O)c(O)ccc12,93.6
15,CC(COc1ccccc1)NC(C)C(O)c1ccc(O)cc1 (stereo unspecified),118
16,Nc1ccc(S(=O)(=O)Nc2ccccn2)cc1,100
17,CO[C@H]1C[C@H](O[C@H]2[C@H](C)[C@@H](O[C@@H]3O[C@H](C)C[C@H](N(C)C)[C@H]3O)[C@@H](C)C[C@@]3(CO3)C(=O)[C@H](C)[C@@H](O)[C@@H](C)[C@@H](C)OC(=O)[C@@H]2C)O[C@@H](C)[C@@H]1O,96.2
18,COc1ccnc(C[S+]([O-])c2nc3cc(OC(F)F)ccc3[nH]2)c1OC (stereo unspecified),96.9
19,O=C(O)[C@H](O)[C@@](O)(Cc1ccc(O)cc1)C(=O)O,92.1
20,Nc1ccn([C@@H]2O[C@H](CO)[C@@H](O)[C@@H]2O)c(=O)n1 [Cytarabine],7.02
21,Nc1ccn([C@@H]2O[C@H](CO)[C@@H](O)[C@@H]2O)c(=O)n1,8.69
22,CCCCOc1cc(CC2CNC(=O)N2)ccc1OC (stereo unspecified),124
23,CC(C)Cn1c(=O)n(C)c(=O)c2[nH]cnc21,110

row,SMILES,cell viability [%]
1,O=c1[nH]cnc2c1ncn2[C@@H]1O[C@H](CO)[C@@H](O)[C@H]1O,109
2,COc1cc([C@@H]2c3cc4c(cc3[C@@H](O[C@@H]3O[C@@H]5CO[C@@H](c6cccs6)O[C@H]5[C@H](O)[C@H]3O)[C@H]3COC(=O)[C@H]23)OCO4)cc(OC)c1O,27.5
3,COc1cc([C@@H]2c3cc4c(cc3[C@@H](O[C@@H]3O[C@@H]5CO[C@@H](c6cccs6)O[C@H]5[C@H](O)[C@H]3O)[C@H]3COC(=O)[C@H]23)OCO4)cc(OC)c1O [Teniposide (Vumon)],12.4
4,O=c1ccc2ccccc2o1,102
5,NCCOB(c1ccccc1)c1ccccc1,117
6,CC1(C)C=Cc2cc3ccc(=O)oc3cc2O1,107
7,CCOC(=O)c1c(C)cc(O)cc1O,104
8,CN(C)CCCN1c2ccccc2Sc2ccc(Cl)cc21,97.2
9,CN(C)c1ccc(O)c2c1C[C@H]1C[C@H]3[C@H](N(C)C)C(O)=C(C(N)=O)C(=O)[C@@]3(O)C(O)=C1C2=O,91.5
10,Cc1ccsc1/C=C/C1=NCCCN1C,99.9
11,COc1cc(OC)c2c(=O)c(-c3ccc4c(c3)OCO4)coc2c1,127
12,O=c1c(O)cc([C@H]2Oc3cc(O)cc(O)c3C[C@H]2O)cc2c([C@H]3Oc4cc(O)cc(O)c4C[C@H]3O)cc(O)c(O)c12,104
13,CN(Cc1cnc2nc(N)nc(N)c2n1)c1ccc(C(=O)N[C@@H](CCC(=O)O)C(=O)O)cc1 [Abitrexate (Methotrexate)],103
14,O=C(COc1ccc(Cl)cc1)N1CCN(Cc2ccc3c(c2)OCO3)CC1,106
15,CCOc1ccc2nc3cc(N)ccc3c(N)c2c1,110
16,CCN(CC)CCNc1ccc(CO)c2sc3ccccc3c(=O)c12,78.3
17,CC(C)(C)CC(C)(C)c1ccc(O)c(Cc2ccc(Cl)cc2Cl)c1,90.6
18,CCN(CC)CCOC(=O)C(c1ccccc1)c1ccccc1,99.8
19,C[C@H]1[C@H](C)CC[C@]2(C(=O)O)CC[C@]3(C)C(=CC[C@@H]4[C@@]5(C)C[C@@H](O)[C@H](O)[C@@](C)(CO)[C@@H]5CC[C@]43C)[C@H]12,89.8
20,CCOC(=O)c1ccc(N)cc1,105
21,CC(C)CCCC(C)C1CCC2C3=CCC4CC(O)CCC4(C)C3CCC21C (stereo unspecified),93
22,C[C@]12CC[C@@H]3c4ccc(OS(=O)(=O)O)cc4CC[C@H]3[C@@H]1CCC2=O,92.4
23,COc1cccc(OC)c1C(=O)N[C@@H]1C(=O)N2[C@@H]1SC(C)(C)[C@@H]2C(=O)O,101

# An excerpt of the results above:
row,SMILES,cell viability [%]
10,Cc1ccsc1/C=C/C1=NCCCN1C,99.9
11,COc1cc(OC)c2c(=O)c(-c3ccc4c(c3)OCO4)coc2c1,127

# Continuation.

row,SMILES,cell viability [%]
1,Cc1ccc(S(=O)(=O)NC(=O)NN2CCCCCC2)cc1,94.9
2,CCCCC1(COC(=O)CCC(=O)O)C(=O)N(c2ccccc2)N(c2ccccc2)C1=O,93.2
3,COc1cc(NC(C)CCCN)c2ncccc2c1 (stereo unspecified),99.5
4,COC(=O)[C@@H]1OC(=O)[C@H]2O[C@@]23[C@@]1(C)CCC1[C@@]2(C)CCC(=O)C(C)(C)C2C[C@@H](OC(C)=O)[C@]13C (stereo partly specified),99
5,CSc1ccc2c(c1)N(CCC1CCCCN1C)c1ccccc1S2 (stereo unspecified),119
6,CC1=C(/C=C/C(C)=C/C=C/C(C)=C\C(=O)O)C(C)(C)CCC1 [Isotretinoin],74.2
7,CC1=C(/C=C/C(C)=C/C=C/C(C)=C\C(=O)O)C(C)(C)CCC1,87
8,CC/C(=C(/CC)c1ccc(O)cc1)c1ccc(O)cc1,108
9,NC(N)=Nc1nc(CSCC/C(N)=N/S(N)(=O)=O)cs1,102
10,COc1ccc(-c2cc(=O)c3c(OC(C)=O)cc(OC(C)=O)cc3o2)cc1,96.9
11,Cc1cc(-c2ccccc2)nnc1NCCN1CCOCC1,97.7
12,COC1(C)CCC2OC2(C)CCC2C1CC2(C)C (stereo unspecified),102
13,COc1ccc(-c2ccc3c(N4CCOCC4)nc(N4C[C@@H](C)O[C@@H](C)C4)nc3n2)cc1CO,30.1
14,CC(=O)NCCc1ccc(O)c(-c2c(O)c(O)c3c(c2O)C(=O)c2c(cc(O)c(C(=O)O)c2C(=O)O)C3=O)c1,102
15,CN(C)[C@@H]1C(O)=C(C(N)=O)C(=O)[C@@]2(O)C(O)=C3C(=O)c4c(O)cccc4[C@@](C)(O)[C@H]3[C@H](O)[C@@H]12,97.5
16,COc1cc(OC)c(/C=C/S(=O)(=O)Cc2ccc(OC)c(NCC(=O)O)c2)c(OC)c1,41.4
17,COC(=O)C1=C(C)NC(C)=C(C(=O)OCCN(C)Cc2ccccc2)C1c1cccc([N+](=O)[O-])c1 (stereo unspecified),88.9
18,Cc1cc(Nc2cc(N3CCN(C)CC3)nc(/C=C/c3ccccc3)n2)n[nH]1,19.9
19,CCCC(=O)[O-].[Na+] [Sodium butyrate],91.3
20,CC(C)=CCc1c2c(c3occ(-c4ccc(O)cc4)c(=O)c3c1O)C=CC(C)(C)O2,108
21,COC(=O)C1=C(C)NC(C)=C(C(=O)OCC(C)C)C1c1ccccc1[N+](=O)[O-] (stereo unspecified),100
22,NC(=O)NC1NC(=O)NC1=O (stereo unspecified),97.2
23,C[C@@H]1CC[C@@]23CCC4(C)[C@@](C=CC5[C@@]6(C)CCC(=O)C(C)(C)C6CC[C@]54C)(OC2=O)C3[C@H]1C (stereo partly specified),95.6

row,SMILES,cell viability [%]
1,O=C1CCc2ccc(OCCCCN3CCN(c4cccc(Cl)c4Cl)CC3)cc2N1,83.4
2,CN(C)CCOC(c1ccc(Cl)cc1)c1ccccn1 (stereo unspecified),111
3,COc1c2ccoc2cc2oc(=O)ccc12,98.4
4,Cc1ccccc1C(OCCN(C)C)c1ccccc1 (stereo unspecified),99.5
5,CC(=O)OC(C)(C)[C@@H]1Cc2cc3ccc(=O)oc3cc2O1,100
6,O=C1C(O)=C([C@H]2CC[C@H](c3ccc(Cl)cc3)CC2)C(=O)c2ccccc21,96.7
7,CN1CCOC(c2ccccc2)c2ccccc2C1 (stereo unspecified),104
8,N=C(N)NCCCCN,96.8
9,COc1ncc(-c2ccc3nccc(-c4ccnnc4)c3c2)cc1NS(=O)(=O)c1ccc(F)cc1F,12.4
10,CN1CCC(=C2c3ccccc3CCc3sccc32)CC1,92.9
11,CCN(CC)CCOc1ccc(C(=C(Cl)c2ccccc2)c2ccccc2)cc1,96.6
12,CC1(C)CC[C@]2(C(=O)O)CC[C@]3(C)C(=CCC4[C@@]5(C)CC[C@@H](O)C(C)(C)C5CC[C@]43C)C2C1 (stereo partly specified),102
13,CCCCCOC(=O)Nc1nc(=O)n([C@@H]2O[C@H](C)[C@@H](O)[C@H]2O)cc1F [Capecitabine (Xeloda)],101
14,CCCCNc1ccc(C(=O)OCCN(C)C)cc1,98.6
15,CC(O)(P(=O)(O)O)P(=O)(O)O,92.4
16,Cc1cnc(C(=O)NCCc2ccc(S(=O)(=O)NC(=O)NC3CCCCC3)cc2)cn1,99.7
17,O=C1[C@H](CC[C@H](O)c2ccc(F)cc2)[C@@H](c2ccc(O)cc2)N1c1ccc(F)cc1 [Ezetimibe (Zetia)],93.8
18,O=C1[C@H](CC[C@H](O)c2ccc(F)cc2)[C@@H](c2ccc(O)cc2)N1c1ccc(F)cc1,94.2
19,CC(=O)O[C@H]1C[C@@H](OC(C)=O)C(C)(C)[C@@H]2C[C@@H](OC(C)=O)[C@@]3(C)C4=CC(=O)O[C@@H](c5ccoc5)[C@]4(C)CC[C@@H]3[C@@]12C,94.5
20,COc1ccc(C(=O)c2ccccc2O)c(O)c1,107
21,COCCc1ccc(OCC(O)CNC(C)C)cc1 (stereo unspecified),98.9
22,Nc1nc2[nH]cc(CCc3ccc(C(=O)N[C@@H](CCC(=O)O)C(=O)O)cc3)c2c(=O)[nH]1 [Pemetrexed],101

# As entered above:
# Cc1ccccc1C(OCCN(C)C)c1ccccc1 (stereo unspecified) – cell viability [%]: 99.5
# COc1c2ccoc2cc2oc(=O)ccc12 – cell viability [%]: 98.4

# From the supplement of paper PMC11150407
